ChEMBL document CHEMBL2375311, “Cytotoxic 3,4,5-trimethoxychalcones as mitotic arresters and cell migration inhibitors” (Eur J Med Chem, 2013)

Columns and labels:
Jurkat = assay: Cytotoxicity against human Jurkat cells after 48 hrs by MTT assay; type: functional, cell-based
MDA-MB-231 = assay: Antimigratory activity against human MDA-MB-231 cells after 6 hrs by Boyden chamber migration assay; type: functional, cell-based; conditions: MDA-MB-231, 6 h

COc1cc2c(c(OC)c1OC)-c1ccc(OC)c(=O)cc1[C@@H](NC(C)=O)CC2 [COLCHICINE]
IC50 (Jurkat): 7.7 nM
IC50 (MDA-MB-231): 475 nM
